Common to all, as to assay: split reporter; Venus BiFC: VC-Hox and VN-TF co-expressed in live Drosophila embryos with the corresponding Hox-Gal4 driver (abdA-Gal4 for AbdA); epidermis, stage 10-12, quantified at stage 10; affected if equal or lower than 50% of wild type, stronger if 120% or more
Experiment [1] deals with VC-Antp (Drosophila melanogaster) (UniProt P02833).
The target of experiment [2] is VC-AbdB (Drosophila melanogaster) (UniProt P09087).
Experiment [3] has as its target VC-Ubx (Drosophila melanogaster) (UniProt P83949).
For experiment [4], the target named is VC-Scr (Drosophila melanogaster) (UniProt P09077).

Sequences of proteins named here, by UniProt entry; tags and fusion partners are left off.
UniProt P02833: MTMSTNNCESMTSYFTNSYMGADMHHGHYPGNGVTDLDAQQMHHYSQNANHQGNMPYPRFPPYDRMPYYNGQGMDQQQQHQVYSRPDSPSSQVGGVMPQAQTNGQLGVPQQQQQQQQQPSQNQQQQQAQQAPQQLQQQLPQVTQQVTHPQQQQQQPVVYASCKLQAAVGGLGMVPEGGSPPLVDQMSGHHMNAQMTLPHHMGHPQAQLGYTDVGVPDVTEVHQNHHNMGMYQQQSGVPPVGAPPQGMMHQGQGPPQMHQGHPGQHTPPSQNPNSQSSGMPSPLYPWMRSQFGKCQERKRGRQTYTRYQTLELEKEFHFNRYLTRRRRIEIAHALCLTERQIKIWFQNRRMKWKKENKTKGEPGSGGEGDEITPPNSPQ
UniProt P83949: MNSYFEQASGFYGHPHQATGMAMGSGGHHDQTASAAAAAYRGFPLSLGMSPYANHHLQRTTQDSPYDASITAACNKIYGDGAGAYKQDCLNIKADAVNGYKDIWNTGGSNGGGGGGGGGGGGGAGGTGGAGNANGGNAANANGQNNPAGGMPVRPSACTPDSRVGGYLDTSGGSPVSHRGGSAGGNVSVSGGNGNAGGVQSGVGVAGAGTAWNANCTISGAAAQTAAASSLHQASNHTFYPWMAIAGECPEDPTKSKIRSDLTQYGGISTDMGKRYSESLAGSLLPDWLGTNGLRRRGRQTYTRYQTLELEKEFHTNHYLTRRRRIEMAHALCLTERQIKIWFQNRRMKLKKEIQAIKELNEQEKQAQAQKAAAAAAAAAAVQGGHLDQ
UniProt P09077: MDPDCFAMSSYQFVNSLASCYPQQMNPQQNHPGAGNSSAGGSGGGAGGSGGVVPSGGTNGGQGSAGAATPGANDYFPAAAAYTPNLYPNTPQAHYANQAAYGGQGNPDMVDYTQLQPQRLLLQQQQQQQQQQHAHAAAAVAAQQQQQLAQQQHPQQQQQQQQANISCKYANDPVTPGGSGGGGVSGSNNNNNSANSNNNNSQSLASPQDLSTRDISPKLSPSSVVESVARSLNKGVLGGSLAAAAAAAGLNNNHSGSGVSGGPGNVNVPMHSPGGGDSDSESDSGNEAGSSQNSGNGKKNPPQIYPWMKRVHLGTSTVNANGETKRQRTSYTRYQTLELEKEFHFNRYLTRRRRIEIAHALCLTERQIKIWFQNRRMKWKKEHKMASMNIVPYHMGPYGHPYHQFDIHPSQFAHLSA

No constants are given. Whether binding was seen depends on the method and setting. In cells and extracts the contact can be indirect.

B1: VN-Nautilus (protein, UniProt P22816 1-332)
chain: MTKYNSGSSEMPAAQTIKQEYHNGYGQPTHPGYGFSAYSQQNPIAHPGQNPHQTLQNFFSRFNAVGDASAGNGGAASISANGSGSSCNYSHANHHPAELDKPLGMNMTPSPIYTTDYDDENSSLSSEEHVLAPLVCSSAQSSRPCLTWACKACKKKSVTVDRRKAATMRERRRLRKVNEAFEILKRRTSSNPNQRLPKVEILRNAIEYIESLEDLLQESSTTRDGDNLAPSLSGKSCQSDYLSSYAGAYLEDKLSFYNKHMEKYGQFTDFDGNANGSSLDCLNLIVQSINKSTTSPIQNKATPSASDTQSPPSSGATAPTSLHVNFKRKCST
B1: in experiment [1], the binding result is “no binding”.

B2: VN-Spalt major (protein, UniProt P39770 1-1365)
chain: MKNHLSNVLCAMRSDFKDNHQETINKMIQFGTVKYGIVKQLKDRARSADKDIGSDQEENGGCSPLTTATTTASPSRSPEPEEEQPEEQSTSEQSIPEQSTPDHQLENDIKSEAKSEIEPVEDNNNRVAMTKPSSEEREPNASGSMPSSPVAEASAEEAATERTPEKEKEKDVEVDVEKPDEAPSSAVPSTEVTLPGGAGAPVTLEAIQNMQMAIAQFAAKTIANGSNGADNEAAMKQLAFLQQTLFNLQQQQLFQIQLIQQLQSQLALNQAKQEEDTEEDADQEQDQEQETDTYEEEERIADMELRQKAEARMAEAKARQHLINAGVPLRESSGSPAESLKRRREHDHESQPNRRPSLDNTHKADTAQDALAKLKEMENTPLPFGSDLASSIITNHDDLPEPNSLDLLQKRAQEVLDSASQGILANSMADDFAFGEKSGEGKGRNEPFFKHRCRYCGKVFGSDSALQIHIRSHTGERPFKCNVCGSRFTTKGNLKVHFQRHAQKFPHVPMNATPIPEHMDKFHPPLLDQMSPTDSSPNHSPAPPPLGSAPASFPPAFPGLQNLYRPPMEILKSLGAAAPHQYFPQELPTDLRKPSPQLDEDEPQVKNEPVEEKDQREEHEQEMAECSEPEPEPLPLEVRIKEERVEEQEQVKQEDHRIEPRRTPSPSSEHRSPHHHRHSHMGYPPVVQPIQPAALMHPQSSPGSQSHLDHLPTPGQLPPREDFFAERFPLNFTTAKMLSPEHHSPVRSPAGGALPPGVPPPPHHHPHHMARSPFFNPIKHEMAALLPRPHSNDNSWENFIEVSNTCETMKLKELMKNKKISDPNQCVVCDRVLSCKSALQMHYRTHTGERPFKCRICGRAFTTKGNLKTHMAVHKIRPPMRNFHQCPVCHKKYSNALVLQQHIRLHTGEPTDLTPEQIQAAEIRDPPPSMMPGHFMNPFAAAAFHFGALPGGPGGPPGPNHGAHNGALGSESSQGDMDDNMDCGEDYDDDVSSEHLSNSNLEQEGDRSRSGDDFKSLLFEQKLRIDATGVVNTNPVRPRSSASSHGHSVGSTSAPTSPSVHASSQVIKRSSSPARSEASQGALDLTPRAAPTSSSSSRSPLPKEKPVSPPSLPRSPSGSSHASANILTSPLPPTVGIDCLPPGLQHHLQQQHQHLMQQQAAVAAAAAAQHHHHQQMAALHQHQEQLRREAAEAQQKAAAAAAAAAAAAAAQRQTPPQARDQRQEGGPGAGPPPNPLMGARPPFGMFPNLPLFPPATTQNMCNAMNQIAQSVMPAAPFNPLALSGVRGSTTCGICYKTFPCHSALEIHYRSHTKERPFKCSICDRGFTTKGNLKQHMLTHKIRDMEQETFRNRAVKYMSEWNEDRE
Consider B2, for which, in experiment [2], the binding result was “no binding”.

B3: VN-Zfh-1 (protein, UniProt P28166 1-1054)
chain: MLSCLAPSSSRFGQEDTIIQQSMPSTSPFAMQFPSLASTLLHHNQSPKHSNPGSSGIQDAHPNQPGAAADAFLVKCTQCHKRFPEYQSLSEHIASEHPHDKLNCGAAQPESDAEDEQSNMSGSSRRYAKSPLASNNNSSTANANNNSTSSQSMNNNSELAKNHNSANKMSPMCSPGSLTPGDLFAQLQHPPPQLPPHLHAQFMAAAASLAMQSARTASSPSQQQQQQLQQQQQLQQQQQHQMAMQQLLPPQLPGSNSSVGSNSAYDLDLSAPRSTSSPGSTTGDLSGAYPCMQCTASFASREQLEQHEQLHSPCGPAAVSNVSQTCRICHKAFANVYRLQRHMISHDESALLRKFKCKECDKAFKFKHHLKEHVRIHSGEKPFGCDNCGKRFSHSGSFSSHMTSKKCISMGLKLNNNRALLKRLEKSPGSASSASRRSPSDHGKGKLPEQPSLPGLPHPMSYFASDAQVQGGSAAPAPFPPFHPNYMNAALLAFPHNFMAAAAGLDPRVHPYSIQRLLQLSAAGQQQREEEREEQQKQQQHDEEETPDEPKLVMDIEEPETKEMAPTPEATEAATPIKREESREASPDPESYRSSSQAIKQEQEPLNVAEERQTPVEEHAPVEHAADLRCSRCSKQFNHPTELVQHEKVLCGLIKEELEQHFQQQQATSFALASASEEDEEDEEMDVEEEPRQESGERKVRVRTAINEEQQQQLKQHYSLNARPSRDEFRMIAARLQLDPRVVQVWFQNNRSRERKMQSFQNNQAAGAAPPMPIDSQASLTREDQPLDLSVKRDPLTPKSESSPPYIAPPSGEALNPEAINLSRKFSTSASMSPASISPSSAAALYFGAAPPPSPPNSQLDSTPRSGQAFPGLPPYMLPMSLPMEALFKMRPGGDFASNHALMNSIKLPDYRGTSLSPGGSEKRSWRDDDSRISHEDEFGAGVLMPPKPRRGKAETHGHAGDPDLPYVCDQCDKAFAKQSSLARHKYEHSGQRPYQCIECPKAFKHKHHLTEHKRLHSGEKPFQCSKCLKRFSHSGSYSQHMNHRYSYCKPYRE
Take B3: the binding entry in experiment [3] is on record as “no binding”.

B4: VN-Knirps (protein, UniProt P10734 1-429)
chain: MNQTCKVCGEPAAGFHFGAFTCEGCKSFFGRSYNNISTISECKNEGKCIIDKKNRTTCKACRLRKCYNVGMSKGGSRYGRRSNWFKIHCLLQEHEQAAAAAGKAPPLAGGVSVGGAPSASSPVGSPHTPGFGDMAAHLHHHHQQQQQQQVPRHPHMPLLGYPSYLSDPSAALPFFSMMGGVPHQSPFQLPPHLLFPGYHASAAAAAASAADAAYRQEMYKHRQSVDSVESQNRFSPASQPPVVQPTSSARQSPIDVCLEEDVHSVHSHQSSASLLHPIAIRATPTTPTSSSPLSFAAKMQSLSPVSVCSIGGETTSVVPVHPPTVSAQEGPMDLSMKTSRSSVHSFNDSGSEDQEVEVAPRRKFYQLEAECLTTSSSSSSHSAAHSPNTTTAHAEVKRQKLGGAEATHFGGFAVAHNAASAMRGIFVCV
In the case of B4, the binding result in experiment [4] is “no binding”.

B5: VN-Mef2 (protein, UniProt P40791 1-540)
chain: MGRKKIQISRITDERNRQVTFNKRKFGVMKKAYELSVLCDCEIALIIFSSSNKLYQYASTDMDRVLLKYTEYNEPHESLTNKNIIEKENKNGVMSPDSPEAETDYTLTPRTEAKYNKIDEEFQNMMQRNQMAIGGAGAPRQLPNSSYTLPVSVPVPGSYGDNLLQASPQMSHTNISPRPSSSETDSGGMSLIIYPSGSMLEMSNGYPHSHSPLVGSPSPGPSPGIAHHLSIKQQSPGSQNGRASNLRVVIPPTIAPIPPNMSAPDDVGYADQRQSQTSLNTPVVTLQTPIPALTSYSFGAQDFSSSGVMNSADIMSLNTWHQGLVPHSSLSHLAVSNSTPPPATSPVSIKVKAEPQSPPRDLSASGHQQNSNGSTGSGGSSSSTSSNASGGAGGGGAVSAANVITHLNNVSVLAGGPSGQGGGGGGGGSNGNVEQATNLSVLSHAQQHHLGMPNSRPSSTGHITPTPGHDKYEGYPYRALMGHNPRWNLNFAGAPSSDQDVRLAAVAVQQQQQQPHQQQQLGDYDAPNHKRPRISGGWGT
As for B5, in experiment [4], the binding entry was “no binding”.

B6: VN-Pan (protein, UniProt P91943 1-751)
chain: MPHTHSRHGSSGDDLCSTDEVKIFKDEGDREDEKISSENLLVEEKSSLIDLTESEEKGHKISRPDHSPVFNKLDTHAPSFNMGYLVSPYSYANGSPSGLPVTMANKIGLPPFFCHNADPLSTPPPAHCGIPPYQLDPKMGLTRPALYPFAGGQYPYPMLSSDMSQVASWHTPSVYSASSFRTPYPSSLPINTTLASDFPFRFSPSLLPSVHATSHHVINAHSAIVGVSSKQECGVQDPTTNNRYPRNLEAKHTSNAQSNESKETTNDKKKPHIKKPLNAFMLYMKEMRAKVVAECTLKESAAINQILGRRWHELSREEQSKYYEKARQERQLHMELYPGWSARDNYGYVSKKKKRKKDRSTTDSGGNNMKKCRARFGLDQQSQWCKPCRRKKKCIRYMEALNGNGPAEDGSCFDEHGSQLSDDDEDDYDDDKLGGSCGSADETNKIEDEDSESLNQSMPSPGCLSGLSSLQSPSTTMSLASPLNMNANSATNVIFPASSNALLIVGADQPTAQQRPTLVSTSGSSSGSTSSISTTPNTSSTVSPVTCMTGPCLGSSQERAMMLGNRFSHLGMGLSPPVVSTSTSKSEPFFKPHPTVCNNPIFALPSIGNCSLNISSMPNTSRNPIGANPRDINNPLSINQLTKRREYKNVELIEASESKTIVAHAATSIIQHVAVNGYHANHSLLNSNLGHLHHQLNNRTENPNRSEQTMLSVSNHSVNSSECHKESDSQAIVSSNPPNAGSSDNGVISVS
Regarding B6, the binding entry in experiment [2] is listed as “no binding”.

B7: VN-Kn (protein, UniProt P56721 1-575)
chain: MEWGRKLYPSAVSGPRSAGGLMFGLPPTAAVDMNQPRGPMTSLKEEPLGSRWAMQPVVDQSNLGIGRAHFEKQPPSNLRKSNFFHFVIALYDRAGQPIEIERTAFIGFIEKDSESDATKTNNGIQYRLQLLYANGARQEQDIFVRLIDSVTKQAIIYEGQDKNPEMCRVLLTHEVMCSRCCDKKSCGNRNETPSDPVIIDRFFLKFFLKCNQNCLKNAGNPRDMRRFQVVISTQVAVDGPLLAISDNMFVHNNSKHGRRAKRLDTTEGTGNTSLSISGHPLAPDSTYDGLYPPLPVATPCIKAISPSEGWTTGGATVIIVGDNFFDGLQVVFGTMLVWSELITSHAIRVQTPPRHIPGVVEVTLSYKSKQFCKGSPGRFVYVSALNEPTIDYGFQRLQKLIPRHPGDPEKLQKEIILKRAADLVEALYSMPRSPGGSTGFNSYAGQLAVSVQDGSGQWTEDDYQRAQSSSVSPRGGYCSSASTPHSSGGSYGATAASAAVAATANGYAPAPNMGTLSSSPGSVFNSTSMSAVSSTWHQAFVQHHHAATAHPHHHYPHPHQPWHNPAVSAATAAAV
Turning to B7, the binding entry in experiment [1] and in experiment [3] was “no binding” each time.
